US12285502B2, “HER3 peptides for imaging and radiotherapy” (The General Hospital Corporation, priority 2016, dated 2025)
Part of at least one peptide drawing is inferred or uncertain, most often the ends.

Test system: MDA-MB-453 cells
Assay: 68Ga-HER3P1 competitive binding assay
Format: cell-based
Settings: 10 μCi, 1×10^5 cells, 1 h

SMILES: CC(C)C[C@@H]1NC(=O)[C@@H](NC(=O)CNC(=O)CNC(=O)CNC(=O)CCNC(=S)Nc2ccc(CC3CN(CC(=O)O)CCN(CC(=O)O)CCN3CC(=O)O)cc2)CSSC[C@@H](C(=O)O)NC(=O)[C@H](CO)NC(=O)[C@H](CCCNC(=N)N)NC(=O)[C@H](Cc2ccccc2)NC(=O)[C@H](CCCCN)NC(=O)[C@H]([C@@H](C)O)NC(=O)[C@@H]2CCCN2C1=O (stereo partly drawn) [^68Ga-(NOTA-NCS)-HER3P1, ^68Ga-(NOTA-NCS)-beta A-G-G-G-C-L-P-T-K-F-R-S-C, metal not drawn]
- binding to MDA-MB-453 cells with excess (100 μM) unlabeled (NOTA-NCS)-HER3P1: significantly (P<0.05) blocked
